From patent publication US5500413 (dated 1996)
Square brackets hold non-standard residues; d marks the D form. * marks the point of attachment. Boc = CC(C)(C)OC(=O)*; Acm = CC(=O)NC*; Mpa = O=C(O)CCS

Assay: general procedure: solution-phase peptide synthesis; p-nitrophenyl active esters; azide coupling (isoamylnitrite); DCC/HOBt
Conditions: diacetate

Substance	step yield [%]	crude HPLC purity (coupling step, HPLC) [%]
Boc-QNC(Acm)P-OH	78.5	
Mpa(Acm)-Tyr-Phe-Gln-Asn-Cys(Acm)-Pro-D-Arg(HCl)-Gly-NH2	84.9	94.5
[Mpa](Acm)YFQNC(Acm)P-OH	85	
